Results are given in words; binding and its absence hold for the method and conditions named. Binding seen in cells or lysates may run through a third protein. Some entries that bind do so weakly or less than the wild type.
Biological target: ARID1B (human (endogenous in hiPSC-derived day 5 cells)) (UniProt Q8NFD5)
Test: co-IP; anti-ARID1B antibody on Protein A Dynabeads incubated with 100 ug nuclear extract of SALL4-WT cells at day 5, 3 h at 4°C; washed five times with Buffer C (400 mM NaCl); immunoblot for SALL4; IgG as negative control

Amino acid sequences for entries named in this document (tags omitted).
UniProt Q8NFD5: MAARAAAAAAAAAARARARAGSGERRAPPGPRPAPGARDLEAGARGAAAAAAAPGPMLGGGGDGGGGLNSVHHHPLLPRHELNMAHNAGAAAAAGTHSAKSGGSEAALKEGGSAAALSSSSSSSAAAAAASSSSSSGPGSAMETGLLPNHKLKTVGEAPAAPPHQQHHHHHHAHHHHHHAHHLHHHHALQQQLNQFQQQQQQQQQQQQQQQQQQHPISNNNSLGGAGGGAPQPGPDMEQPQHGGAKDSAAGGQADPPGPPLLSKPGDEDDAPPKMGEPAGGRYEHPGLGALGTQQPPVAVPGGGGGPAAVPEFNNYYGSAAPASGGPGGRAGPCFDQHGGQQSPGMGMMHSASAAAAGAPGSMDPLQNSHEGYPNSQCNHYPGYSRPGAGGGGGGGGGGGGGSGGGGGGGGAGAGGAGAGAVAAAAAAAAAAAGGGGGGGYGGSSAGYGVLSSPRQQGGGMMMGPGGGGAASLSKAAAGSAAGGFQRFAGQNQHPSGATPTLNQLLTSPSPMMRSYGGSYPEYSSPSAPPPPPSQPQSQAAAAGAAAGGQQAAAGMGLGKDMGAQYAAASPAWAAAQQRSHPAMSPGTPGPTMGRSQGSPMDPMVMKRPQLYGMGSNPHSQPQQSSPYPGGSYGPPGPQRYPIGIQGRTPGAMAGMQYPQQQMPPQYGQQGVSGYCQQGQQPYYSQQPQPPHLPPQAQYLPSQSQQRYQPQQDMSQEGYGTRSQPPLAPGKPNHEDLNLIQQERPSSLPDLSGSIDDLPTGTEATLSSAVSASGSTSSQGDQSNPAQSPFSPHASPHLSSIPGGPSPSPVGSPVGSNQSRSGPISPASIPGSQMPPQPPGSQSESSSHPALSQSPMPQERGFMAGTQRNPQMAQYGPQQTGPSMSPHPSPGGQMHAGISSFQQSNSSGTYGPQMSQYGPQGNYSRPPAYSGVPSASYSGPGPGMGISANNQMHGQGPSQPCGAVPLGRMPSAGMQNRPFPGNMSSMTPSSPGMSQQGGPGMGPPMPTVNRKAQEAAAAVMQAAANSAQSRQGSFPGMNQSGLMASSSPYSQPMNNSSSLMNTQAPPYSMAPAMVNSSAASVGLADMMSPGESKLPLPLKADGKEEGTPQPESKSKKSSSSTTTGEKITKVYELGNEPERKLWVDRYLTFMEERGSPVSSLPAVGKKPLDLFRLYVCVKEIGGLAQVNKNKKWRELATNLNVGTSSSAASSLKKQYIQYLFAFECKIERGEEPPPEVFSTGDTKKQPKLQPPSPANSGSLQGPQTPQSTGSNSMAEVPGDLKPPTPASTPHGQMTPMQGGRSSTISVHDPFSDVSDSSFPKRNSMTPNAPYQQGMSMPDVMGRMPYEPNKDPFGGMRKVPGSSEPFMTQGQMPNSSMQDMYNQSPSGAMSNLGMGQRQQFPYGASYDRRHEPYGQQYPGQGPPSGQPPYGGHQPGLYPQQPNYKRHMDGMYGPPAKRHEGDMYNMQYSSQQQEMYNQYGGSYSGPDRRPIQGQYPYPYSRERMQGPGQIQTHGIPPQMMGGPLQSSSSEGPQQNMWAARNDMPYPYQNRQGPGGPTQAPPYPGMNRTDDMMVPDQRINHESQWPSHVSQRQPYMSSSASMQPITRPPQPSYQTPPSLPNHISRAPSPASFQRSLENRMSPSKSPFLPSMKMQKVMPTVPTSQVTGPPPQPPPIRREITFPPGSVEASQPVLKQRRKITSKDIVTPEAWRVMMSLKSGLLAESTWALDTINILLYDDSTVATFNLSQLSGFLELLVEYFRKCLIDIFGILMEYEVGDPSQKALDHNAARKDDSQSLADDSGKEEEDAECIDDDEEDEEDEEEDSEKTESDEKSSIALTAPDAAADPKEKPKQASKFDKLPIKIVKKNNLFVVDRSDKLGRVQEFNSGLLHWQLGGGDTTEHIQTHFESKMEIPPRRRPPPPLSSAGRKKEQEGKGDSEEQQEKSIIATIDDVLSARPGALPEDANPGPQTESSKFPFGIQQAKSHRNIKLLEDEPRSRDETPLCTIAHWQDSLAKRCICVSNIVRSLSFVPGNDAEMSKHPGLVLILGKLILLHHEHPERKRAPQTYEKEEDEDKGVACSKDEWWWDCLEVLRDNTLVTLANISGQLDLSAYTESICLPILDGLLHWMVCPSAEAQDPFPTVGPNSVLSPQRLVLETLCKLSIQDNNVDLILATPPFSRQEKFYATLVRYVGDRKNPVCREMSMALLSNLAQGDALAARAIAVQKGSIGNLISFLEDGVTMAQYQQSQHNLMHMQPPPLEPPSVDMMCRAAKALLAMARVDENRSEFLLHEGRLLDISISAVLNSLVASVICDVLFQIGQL

binding: binds
B1: SALL4B (protein, UniProt Q9UJQ4-2 1-616)
chain: MSRRKQAKPQHINSEEDQGEQQPQQQTPEFADAAPAAPAAGELGAPVNHPGNDEVASEDEATVKRLRREETHVCEKCCAEFFSISEFLEHKKNCTKNPPVLIMNDSEGPVPSEDFSGAVLSHQPTSPGSKDCHRENGGSSEDMKEKPDAESVVYLKTETALPPTPQDISYLAKGKVANTNVTLQALRGTKVAVNQRSADALPAPVPGANSIPWVLEQILCLQQQQLQQIQLTEQIRIQVNMWASHALHSSGAGADTLKTLGSHMSQQVSAAVALLSQKAGSQGLSLDALKQAKLPHANIPSATSSLSPGLAPFTLKPDGTRVLPNVMSRLPSALLPQAPGSVLFQSPFSTVALDTSKKGKGKPPNISAVDVKPKDEAALYKHKCRSSLPSTFIRAPPTYVKVEVPGTFVGPSTLSPGMTPLLAAQPRRQAKQHGCTRCGKNFSSASALQIHERTHTGEKPFVCNICGRAFTTKGNLKVHYMTHGANNNSARRGRKLAIENTMALLGTDGKRVSEIFPKEILAPSVNVDPVVWNQYTSMLNGGLAVKTNEISVIQSGGVPTLPVSLGATSVVNNATVSKMDGSQSGISADVEKPSATDGVPKHQFPHFLEENKIAVS
